Experimental data: PubChem BioAssay AID602196 (INSERM, 2012)
The whole screen tested about 23,000 reagents; shown is an unselected part. 455 of them (2%) were called active. 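Active includes both protection and sensitisation; some change values fall well beyond the stated -50 to +50 range.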 Unmarked entries are inactive. The numbers tell different reagents against one gene apart. Reagent sequences are not shown. Not given: the amount of reagent.

Purpose: 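Modifiers of cisplatin sensitivity in A549 cells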
Cells: human A549 lung cancer cells
Reagent: siRNA pair against human genes
Timing: 48 h transfection before cisplatin; time from cisplatin to read-out not stated
Conditions: cisplatin at a dose killing half of control-siRNA cells; exact dose and duration not given
Measurement: 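Shift in cisplatin death relative to control siRNA, from -50 (all cells die) to +50 (no cells die); siRNAs harmful on their own scored 0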
Reading the numbers: two-siRNA summed score (-2 to +2): higher = both siRNAs protect from cisplatin killing; -2 means both sensitise; mean protection from cisplatin (shift in death) and protection from cisplatin (shift in death), siRNA C and protection from cisplatin (shift in death), siRNA D: higher = protection from cisplatin killing
Active means: 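siRNAs harmful alone (LDH or WST-1) get 0; others get +1 for less and -1 for more cisplatin killing; genes are active when the two siRNAs give the same sign, summing to ±2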
Meaning of the calls: active = both siRNAs shift cisplatin killing the same way; inactive = no consistent shift, or siRNA harmful alone

target	reagent no.	two-siRNA summed score (-2 to +2)	mean protection from cisplatin (shift in death) (%)	protection from cisplatin (shift in death), siRNA C (%)	protection from cisplatin (shift in death), siRNA D (%)
SLC39A10	1	0	7.9	9.4	6.5
URI1	1	1	9.9	8.1	11.6
DBX2	1	0	6.7	4.7	8.6
HSD17B4	1	-1	-7.6	-16.6	1.3
PLLP	1	0	-3.2	-9.8	3.3
SYPL1	1	-1	-7.1	-0.3	-13.9
RYK	1	1	-0.7	-11.5	10.2
DYNLRB2	1	0	-0.7	10.8	-12.2
RAB28	1	-1	-13.9	-0.9	-26.9
CDH13	1	1	8.4	-1.7	18.6
PPP1R35	1	0	4.3	11.3	-2.6
GABRQ	1	0	-27.5	-10.8	-44.2
IFT25	1	0	2	-9.5	13.6
AQP1	1	-1	-11.5	6.3	-29.3
TIPE3	1	1	10.6	6.6	14.5
RNASEH2B	1	0	-4	-3.7	-4.4
ENTPD3	1	-1	-4	7.1	-15.1
LOC388923	1	0	2.1	6.5	-2.3
LOC400619	1	0	7	0.8	13.1
CARMIL1	1	0	4.4	2.9	6
B3GNT3	1	0	5.2	4.4	6
LOC127309	1	0	8.7	14.5	2.9
NCOA2	1	-2 (active)	-18.1	-16.2	-20.1
LOC402388	1	0	3.4	6.9	-0.1
RINL	1	0	2	10.1	-6.2
ADAP2	1	0	14.7	9.2	20.2
LOC440871	1	0	10.4	11.9	9
OR5AC2	1	0	4.6	2.2	7
LPAR6	1	0	-9.5	-14.6	-4.5
TEF	1	0	6.1	12.1	0.1
OR2D2	1	-1	11.8	38.4	-14.9
LOC392193	1	1	10.6	16	5.2
LINC00200	1	1	4.1	17.6	-9.3
ADGRA1	1	-1	-7.5	-3.2	-11.8
LOC442371	1	0	2.7	4.3	1.1
TRIM9	1	0	15.4	11.7	19.1
LOC91561	1	0	14.1	11.2	17
WFDC11	1	0	6.1	8.9	3.3
LAMB1	1	-1	-2	20.5	-24.5
PDYN	1	0	9.6	29	-9.9
MYBPHL	1	-1	-8.3	-19.5	2.9
LOC401215	1	0	2.5	-2	6.9
RPL23AP96	1	0	8.6	7.6	9.5
ATG101	1	-1	-13.9	-8	-19.8
LRRC8B	1	1	22.8	30.1	15.5
LOC389413	1	1	16.4	12.1	20.6
TNFAIP3	1	0	-0.8	3.1	-4.7
SPEM2	1	2 (active)	18.6	22.8	14.4
DNAJB7	1	-1	-6.2	-9.8	-2.7
LOC345222	1	0	-3.6	-3.9	-3.3
FAM177A1	1	0	8.1	10.5	5.7
CTR9	1	0	-0.6	2.6	-3.8
PIK3R3	1	-1	-15.6	-17.3	-14
ZNF630	1	0	-8.1	-8.3	-7.8
LOC90024	1	0	4.1	5.1	3.1
RBM41	1	0	-1.5	0.8	-3.7
ANO4	1	0	8.6	13	4.2
LOC390387	1	0	-0.5	-0.4	-0.5
ADAD1	1	0	9.7	17	2.4
LOC440339	1	0	17.1	14.7	19.5
FOXD4L3	1	0	7.1	17.8	-3.6
FOXD4L3	2	0	11.7	5.9	17.5
LOC400097	1	0	5	5.2	4.9
UBE2E2	1	0	3.1	4	2.1
SAT2	1	0	0.5	7.6	-6.6
LOC400944	1	0	14.2	20.9	7.5
EIF1AY	1	0	9.1	6.5	11.7
LUM	1	1	11.3	21.3	1.3
XAGE5	1	-1	-0.3	-16.6	16
SBF1	1	0	-1.2	9.8	-12.2
DYNC2I2	1	0	13.8	9	18.6
GALR2	1	0	1.8	13.2	-9.6
SH3RF2	1	0	-4.4	-7.9	-0.9
